Measurements reported in US20100333217A1, “SCREENING METHOD FOR THE COMPOSITION FOR PREVENTION OR TREATMENT OF OSTEOPOROSIS AND METABOLIC BONE DISEASE USING TALLYHO/JNGJ MOUSE” (KOREA RESERACH INSTITUTE OF CHEMICAL TECHNOLOGY, priority 2007, published 2010).

System: male TH mice
Assay: Micro-CT bone mineral density, bone mineral content and skull thickness in drug-treated male TH mice
Format: in vivo, mouse
Conditions: 4-week-old male TH mice, oral 5 mg/kg once a day for 4 weeks
Description: Control mice (C57BL/6) and TH mice were freely fed, and their bone mineral densities were measured every week from 4 week age to 20 week age after delectation. The mice were anesthetized with Avertin (2,2,2-tribromoethanol) to keep them alive while measuring their bone mineral densities. […] Thereafter, the resulting images were reformed using Microview (GE Healthcare, USA) to obtain the final bone mineral density (BMD) and the final bone mineral content (BMC) (see FIG. 2).
Control mice (C57BL/6) and TH mice were fed freely. […] Thereafter, the bone thicknesses and the bone mineral densities of the extracted skulls were measured as described in Example 2, using a tomographic apparatus (micro-CT) for animals.
8-week-old male TH mice were orally administered with parathyroid hormone (hPTH(1-34), Sigma, USA), which is started to be used as an osteoporosis medicine increasing the bone mineral content, with a concentration of 50 μg/kg, once a day for 4 weeks.

Question: Which results are given for NCCCC(O)(P(=O)(O)O)P(=O)(O)O [alendronate]?
Answer: bone mineral densities in the femurs (vs 8-week-old TH mice treated with vehicle only (FIG. 15)): significantly recovered; bone mineral densities of the skulls (vs TH mice vehicle (FIG. 18)): significantly recovered
